From publication PMC9029106

Amino acid sequences for entries named in this document (tags omitted). A change or cut given only in a name is not applied to a line headed by its entry.
UniProt Q9Y252: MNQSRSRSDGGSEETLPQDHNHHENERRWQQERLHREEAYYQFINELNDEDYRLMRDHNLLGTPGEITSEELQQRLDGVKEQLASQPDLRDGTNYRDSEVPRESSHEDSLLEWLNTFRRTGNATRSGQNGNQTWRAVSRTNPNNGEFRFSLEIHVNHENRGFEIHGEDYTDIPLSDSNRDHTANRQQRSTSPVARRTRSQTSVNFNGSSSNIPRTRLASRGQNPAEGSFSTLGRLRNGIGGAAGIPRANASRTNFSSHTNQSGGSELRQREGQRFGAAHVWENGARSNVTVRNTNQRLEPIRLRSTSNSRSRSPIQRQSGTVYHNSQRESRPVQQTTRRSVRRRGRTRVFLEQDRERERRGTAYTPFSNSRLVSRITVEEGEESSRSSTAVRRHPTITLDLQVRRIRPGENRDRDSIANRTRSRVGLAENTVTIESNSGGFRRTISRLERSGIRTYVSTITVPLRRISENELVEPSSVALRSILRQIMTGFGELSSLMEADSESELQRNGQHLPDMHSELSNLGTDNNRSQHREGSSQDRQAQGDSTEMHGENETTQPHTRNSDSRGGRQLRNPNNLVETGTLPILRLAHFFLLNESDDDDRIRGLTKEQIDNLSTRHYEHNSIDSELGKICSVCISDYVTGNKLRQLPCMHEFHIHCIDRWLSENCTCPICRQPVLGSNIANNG
UniProt P46527: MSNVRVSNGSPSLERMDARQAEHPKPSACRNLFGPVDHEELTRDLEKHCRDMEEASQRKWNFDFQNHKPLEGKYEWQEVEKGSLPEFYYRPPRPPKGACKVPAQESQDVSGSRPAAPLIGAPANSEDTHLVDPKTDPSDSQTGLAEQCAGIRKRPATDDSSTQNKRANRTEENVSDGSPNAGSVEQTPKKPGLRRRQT

Molecular target: HA-tagged RNF6 KIL domain mutant (human) (UniProt Q9Y252)
Assay: co-IP; HA-tagged WT RNF6 and mutants cotransfected with p27 in HEK293 cells; MG132 (10 µM) for 6 h; blotted for HA and p27; the precipitating antibody is not told

**Q.** WT p27 (from UniProt P46527 1-198) was tested. Which binding did it give?
**A.** The binding was “no binding”.

Results are given in words; binding and its absence hold for the method and conditions named. Binding seen in cells or lysates may run through a third protein.
